{
  "source": "patent US20230317203A1",
  "about": "“SCREENING METHOD” (University of Leeds, priority 2022, published 2023)",
  "origin": "cited, not measured here",
  "target": "BRCC36 (Homo sapiens, UniProt P46736)",
  "settings": "reference 21; cited from earlier work",
  "note": "For at least one compound, name, drawing or mass did not settle the structure.",
  "data": [
    {"smiles": "O=C(NCCc1nccs1)c1cnc2c(SSc3cccc4cc(C(=O)NCCc5nccs5)cnc34)cccc2c1", "note": "[capzimin]", "values": [
      {"measurement": "inhibition of BRCC36", "value": "micromolar concentrations"}
    ]}
  ]
}
